Data as given in PubChem BioAssay AID504808 (Drosophila RNAi Screening Center, 2011)
In all, the deposit lists about 21,000 reagents; this is an unselected part of those with a known target gene and a result. Over the whole deposit, 18 (0.084%) were called active. 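Raw counts without plate normalisation, one of two replicates; the ratio scores behind the calls were not deposited.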 Reagents against one gene are numbered here. Names joined by + are all predicted targets of the reagent. Not given: the amount of reagent, the time to read-out.

Aim: 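Chromatin factors that keep E2F targets switched off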 (primary screen)
System: Drosophila S2 cells
Knock-down reagent: long dsRNA against Drosophila genes
Read-out: 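Dual luciferase plate measurements; E2F-specific signal taken as firefly over Renilla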
Scale: E2F firefly: higher = more E2F reporter activity; Renilla normaliser: higher = more normaliser reporter signal
Hit rule: 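Called active if the normalised E2F reporter went up by over 50%; the cutoff is arbitrary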

gene	dsRNA no.	E2F firefly, rep 1	Renilla normaliser, rep 1	Outcome
thoc7	1	71467	3478	inactive
Sytalpha	1	1.10e5	4407	inactive
eve	1	1.39e5	5052	inactive
CG13716	1	93753	4021	inactive
Jhedup	1	1.30e5	4254	inactive
CG11570	1	1.21e5	6803	inactive
CG42538	1	1.28e5	4717	inactive
Yip1d1	1	1.03e5	4607	inactive
Chs2	1	1.39e5	7117	inactive
CG10939	1	84654	3950	inactive
tst + CG10375	1	67048	2797	inactive
regucalcin	1	93138	2920	inactive
regucalcin	2	1.27e5	6303	inactive
CG34300	1	68264	2470	inactive
CG17010	1	77175	3395	inactive
CG13998	1	1.64e5	5749	inactive
pch2	1	1.51e5	7483	inactive
Idgf4	1	1.23e5	6617	inactive
ScsbetaG	1	82726	3827	inactive
CG8086	1	85305	3670	inactive
CG8086	2	1.36e5	5343	inactive
wash	1	96059	3710	inactive
phr6-4	1	1.07e5	4386	inactive
CG8668	1	91445	4278	inactive
CG15040	1	53340	3640	inactive
Femcoat	1	1.10e5	5875	inactive
CG17298	1	1.55e5	8045	inactive
CG5521	1	1.17e5	5890	inactive
cutlet	1	1.51e5	4825	inactive
ThrRS	1	92474	3926	inactive
ATP6AP2	1	1.25e5	5597	inactive
CG9775	1	77126	3514	inactive
Golgin97	1	3217	180	inactive
CG42662 + CG30080	1	1.36e5	4800	inactive

Not a retest: 5 of the entries above.
gene	dsRNA no.	E2F firefly, rep 1	Renilla normaliser, rep 1	Outcome
CG8086	1	85305	3670	inactive
CG8086	2	1.36e5	5343	inactive
wash	1	96059	3710	inactive
phr6-4	1	1.07e5	4386	inactive
CG8668	1	91445	4278	inactive
